The list shows a part of the results. Further columns of the screen follow, without active or inactive calls. Most of these compounds were active or inconclusive in the main read-out, so they are no random draw. Words in brackets tell the shape of the fitted curve; partial curves, single points and poor fits give uncertain potencies.
Assay: qHTS Assay for Lipid Storage Modulators in Drosophila S3 Cells;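 for cell number change: cells counted by Cell Tracker Red CMTPX staining in the red channel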
Details: BODIPY lipid droplet fluorescence, 18-24 h; for cell number change: measured here: cell count max response, cells fed with added oleic acid
In short: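 Drosophila S3 cells got compounds at several concentrations plus oleic acid (400 uM solution). Laser-scanning cytometry with 488 nm excitation read lipid droplets at 500-530 nm and cells at 575-640 nm. Percent activity was relative to 20 uM Triacsin C.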

[1] = measured here: cell number channel AC50, cells fed with added oleic acid
[2] = measured here: lipid fluorescence (Fed channel) AC50, cells fed with added oleic acid

Row | SMILES | cell number change | AC50 [1] | AC50 [2]
1 | CC(C)(C)c1ccc(OCc2nc(-c3ccccn3)no2)c(Br)c1 | -45.6% | 29.1 µM [falling, single point] | 29.1 µM [falling, single point]
2 | CN(C(=O)CSc1nc2cc([N+](=O)[O-])ccc2n1-c1ccc(F)cc1)C1CCS(=O)(=O)C1 (stereo unspecified) | 14.9% | – | 23.1 µM [rising, partial curve, poor fit]
3 | CC1CCCCC1NS(=O)(=O)c1ccc(S(=O)(=O)N2CCCC2)cc1 (stereo unspecified) | 8.66% | – | 5.17 µM [rising, single point]
4 | COC(=O)c1ccc(Cn2cnc3c(sc4nc(N5CCOCC5)c5c(c43)CCCC5)c2=O)o1 | – | 0.58 µM [rising, single point] | 1.03 µM [rising, full curve]
5 | CCc1c(C(=O)NNC(=S)NCc2ccccc2)csc1C | 16.4% | – | 2.59 µM [rising, partial curve]
6 | CN1CCN(c2nc3c(c(=O)[nH]c(=O)n3C)n2Cc2ccccc2F)CC1 | -1.1% | – | 0.00461 µM [rising, full curve, poor fit]
7 | CCOC(=O)C1=NOC(Cn2cc(C#N)c(=O)n(C)c2=O)C1 (stereo unspecified) | 8.87% | – | –
8 | N#CCCN(C(=O)COC(=O)Cc1c[nH]c2ccccc12)c1ccccc1 | – | – | 10.3 µM [rising, partial curve]
9 | CCN1C(=O)/C(=C\N(C)C)S/C1=N\S(=O)(=O)c1ccccc1 | 10.8% | – | 0.00517 µM [falling, full curve, poor fit]
10 | CN(CC1CCCO1)S(=O)(=O)c1ccc(C(=O)Nc2ccc([N+](=O)[O-])cc2)cc1 (stereo unspecified) | – | – | 11.2 µM [falling, partial curve]
11 | O=C(O)c1[nH]c2ccccc2c1NS(=O)(=O)c1ccc(F)cc1 | – | – | 0.731 µM [falling, partial curve]
12 | O=C(NC1CCN(S(=O)(=O)c2ccccc2)CC1)c1cccc(F)c1 | -5.25% | – | 8.2 µM [falling, partial curve]
13 | Cc1c(-c2ccccc2)c(P(=O)(N2CCOCC2)N2CCOCC2)c2ccccn12 | 31.8% | 20.6 µM [rising, single point] | 8.2 µM [rising, partial curve]
14 | CCOc1cc(/C=N/NC(=O)C(=O)NCCCOC(C)C)cc(Br)c1O | -52.4% | 29.1 µM [falling, single point] | 0.651 µM [rising, partial curve]
15 | Cc1ccc2nc(SCC(=O)c3c(N)n(C)c(=O)n(C)c3=O)[nH]c2c1 | -5.74% | 0.164 µM [rising, full curve, poor fit] | –
16 | Cc1c(Br)c([N+](=O)[O-])nn1C(C)C(=O)N1CCCc2ccccc21 (stereo unspecified) | -22.9% | 2.31 µM [rising, single point] | –
17 | COc1ccc(NC(=O)C(c2ccc(Cl)cc2)C(C)C)cn1 (stereo unspecified) | -33.7% | – | –
18 | Fc1ccc(-n2cc(-c3ccccc3)[n+]3c2SCC3)cc1 | 135% | – | –
19 | Cc1ccc(F)c(NC(=O)CCOc2ccccc2C)c1 | 0.549% | – | 0.58 µM [falling, single point]
20 | O=C1CC(NS(=O)(=O)c2ccc3ccccc3c2)CN1c1ccccc1 (stereo unspecified) | 44.8% | – | –

Copied from the list:
cell number change with Cc1c(Br)c([N+](=O)[O-])nn1C(C)C(=O)N1CCCc2ccccc21 (stereo unspecified) reads -22.9%
AC50 [2] with N#CCCN(C(=O)COC(=O)Cc1c[nH]c2ccccc12)c1ccccc1 reads 10.3 µM [rising, partial curve]

The listing continues:

Row | SMILES | cell number change | AC50 [1] | AC50 [2]
21 | Cc1ccc(C)c(SCC(=O)c2ccc[nH]2)c1 | – | 0.00517 µM [falling, full curve, poor fit] | –
22 | O=C(c1ccc(Cn2cc([N+](=O)[O-])cn2)o1)N1N=C(C(F)F)CC1(O)C(F)F (stereo unspecified) | – | 3.26 µM [rising, single point] | 2.91 µM [rising, single point]
23 | CC(=Nc1ccccc1)C1=C(O)COC1=O | -7.26% | 5.8 µM [falling, single point] | 29.1 µM [rising, single point]
24 | O=C(O)CCC(=O)N(Cc1ccccc1)Cc1ccccc1 | -12.4% | – | –
25 | CCCCCCCCCCS(=O)(=O)N/N=C/c1ccc(O)cc1 | -19.7% | – | 29.1 µM [falling, single point]
26 | Cc1ccc(N2C(=O)C3ON(c4ccccc4)C(c4ccncc4)C3C2=O)c(C)c1 (stereo unspecified) | 1.71% | – | –
27 | CCCCc1cc(=O)oc2cc(C)cc(OC(C)C(=O)NCc3ccncc3)c12 (stereo unspecified) | -6.6% | – | –
28 | N#C/C(=C\c1ccncc1)c1ccc(NC(N)=O)cc1 | 16.3% | 1.03 µM [rising, full curve, poor fit] | –
29 | Cc1ccc2nc(Cl)c(/C=N/n3c(C)nnc3C)cc2c1 | -12.2% | – | 6.51 µM [falling, single point]
30 | C=CCNC(=O)C1CC(=O)N(c2ccc(OCc3ccccc3Cl)cc2)C1 (stereo unspecified) | 3.44% | – | 0.092 µM [rising, full curve, poor fit]
31 | Cc1ccc(N(CC(=O)NC2CC3CCC2C3)S(C)(=O)=O)cc1C (stereo unspecified) | 1.65% | – | 0.058 µM [falling, full curve, poor fit]
32 | CC1CCCCC1NC(=O)CCC(=O)N1CCOc2ccc(Cl)cc21 (stereo unspecified) | 28.3% | – | 2.06 µM [rising, full curve]
33 | CCc1cccc(C)c1NC(=O)CN(C)Cc1ccc(Br)cc1 | 33.9% | 18.4 µM [rising, single point] | –
34 | Cc1ccc2c(c1)N(CC(=O)NC1CCCCC1)C(=O)c1cccnc1O2 | 15% | – | 6.51 µM [rising, single point]
35 | Cc1ccc(CNC(=O)c2ccccc2NC(=O)CN2CC(C)OC(C)C2)cc1 (stereo unspecified) | 5.41% | – | –
36 | O=C(O)c1ccc(C2NCC(c3ccccc3Cl)c3c2[nH]c2ccccc32)cc1 (stereo unspecified) | -31.7% | 2.91 µM [falling, partial curve] | 3.66 µM [falling, full curve]
37 | COc1ccc(Cc2nnc(NC(=O)c3ccc(OC(C)=O)cc3)s2)cc1OC | 18.9% | – | 29.1 µM [rising, single point]
38 | CCN(CC)C(=O)c1ccc(-c2nnc(Nc3ccc(C(=O)N(C)C)cc3)c3ccccc23)cc1 | -11.2% | – | 3.26 µM [falling, partial curve, poor fit]
39 | COc1cccc2sc(N(CCN(C)C)C(=O)c3ccc4c(c3)CCCC4)nc12 | -10.1% | – | 25.9 µM [falling, single point]

Reference: PubChem BioAssay AID2685 (National Center for Advancing Translational Sciences (NCATS), 2010)
